Common to all, as to assay: EMSA
In series [1] the target is Stat84 (Stat1 beta, 84 kD) homodimer (Homo sapiens) (UniProt P42224). To be noted: protein in an extract; protein details: phosphorylated, expressed in U3A cells (C84); label: 32P.
Series [2] has as its system Stat84/Stat91L heterodimer (Homo sapiens). To be noted: intermediate band in Cmx extracts; also after guanidinium denaturation-renaturation of mixed extracts; protein in an extract; label: 32P.
Series [3] addresses Stat91 (Stat1 alpha), unphosphorylated monomer (Homo sapiens) (UniProt P42224). To be noted: only phosphorylated dimer has sequence-specific DNA binding; protein in an extract; protein details: unphosphorylated; label: 32P.
For series [4], the target named is Stat91 (Stat1 alpha, 91 kD), tyrosine phosphorylated homodimer (Homo sapiens) (UniProt P42224). To be noted: IFN-gamma-treated Bud8 extract glycerol gradient fractions; DNA binding peak correlates with phosphorylated dimer; protein in an extract; protein details: phosphorylated on Tyr701 (IFN-gamma-treated cells); label: 32P.
The target in series [5] is Stat91L homodimer (Homo sapiens) (UniProt P42224). To be noted: IFN-gamma-treated C91L extract; slower band; blocked by 160 uM phosphopeptide GY*IKTE; protein in an extract; label: 32P.

Chains of the proteins cited; added tags and fusions are not shown. Chains listed by the source or under a name are the forms on record and can include a tag or linker. Residues count along the entry.
UniProt P42224, 1-712: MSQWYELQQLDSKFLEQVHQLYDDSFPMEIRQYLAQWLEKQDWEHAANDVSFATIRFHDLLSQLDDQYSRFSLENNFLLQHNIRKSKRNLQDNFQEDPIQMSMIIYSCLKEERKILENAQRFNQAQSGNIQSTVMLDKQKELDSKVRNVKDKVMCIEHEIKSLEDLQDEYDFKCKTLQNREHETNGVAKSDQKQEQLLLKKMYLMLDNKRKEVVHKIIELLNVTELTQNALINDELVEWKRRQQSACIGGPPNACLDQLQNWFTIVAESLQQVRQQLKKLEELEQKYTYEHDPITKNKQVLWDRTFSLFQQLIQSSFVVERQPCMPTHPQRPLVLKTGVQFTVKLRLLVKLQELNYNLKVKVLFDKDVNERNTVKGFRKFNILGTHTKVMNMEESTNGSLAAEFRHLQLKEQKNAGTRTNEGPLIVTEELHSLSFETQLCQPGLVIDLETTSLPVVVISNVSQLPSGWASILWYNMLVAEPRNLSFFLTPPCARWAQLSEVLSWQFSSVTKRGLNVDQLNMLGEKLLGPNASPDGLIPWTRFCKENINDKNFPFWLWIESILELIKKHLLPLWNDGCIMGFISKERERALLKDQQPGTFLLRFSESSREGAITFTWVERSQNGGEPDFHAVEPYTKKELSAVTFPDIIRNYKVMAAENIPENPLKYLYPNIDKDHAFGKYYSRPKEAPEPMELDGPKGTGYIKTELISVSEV
Stat84/Stat91L heterodimer (Homo sapiens), one chain, as listed by the source, chain 2 of 2: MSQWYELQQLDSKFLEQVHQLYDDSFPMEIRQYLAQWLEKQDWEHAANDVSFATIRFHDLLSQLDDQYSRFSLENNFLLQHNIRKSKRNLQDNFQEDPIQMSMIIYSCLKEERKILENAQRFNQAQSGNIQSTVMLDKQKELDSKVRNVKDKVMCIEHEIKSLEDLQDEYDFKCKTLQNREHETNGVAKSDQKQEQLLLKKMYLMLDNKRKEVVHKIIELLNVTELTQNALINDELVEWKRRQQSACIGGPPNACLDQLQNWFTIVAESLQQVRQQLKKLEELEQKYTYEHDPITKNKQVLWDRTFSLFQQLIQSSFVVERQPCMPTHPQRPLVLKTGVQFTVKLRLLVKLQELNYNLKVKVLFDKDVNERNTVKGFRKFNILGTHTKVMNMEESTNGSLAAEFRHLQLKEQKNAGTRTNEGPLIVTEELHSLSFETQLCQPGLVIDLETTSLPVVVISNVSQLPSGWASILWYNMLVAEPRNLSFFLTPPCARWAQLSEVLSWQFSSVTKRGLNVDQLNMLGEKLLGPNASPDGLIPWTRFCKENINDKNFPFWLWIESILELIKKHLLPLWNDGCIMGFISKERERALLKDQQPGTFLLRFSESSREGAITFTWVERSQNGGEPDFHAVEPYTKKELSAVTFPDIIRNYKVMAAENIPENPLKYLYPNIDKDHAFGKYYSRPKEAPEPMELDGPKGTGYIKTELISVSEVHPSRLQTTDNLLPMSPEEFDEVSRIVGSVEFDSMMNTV
Stat84/Stat91L heterodimer (Homo sapiens), one chain, as listed by the source, chain 1 of 2: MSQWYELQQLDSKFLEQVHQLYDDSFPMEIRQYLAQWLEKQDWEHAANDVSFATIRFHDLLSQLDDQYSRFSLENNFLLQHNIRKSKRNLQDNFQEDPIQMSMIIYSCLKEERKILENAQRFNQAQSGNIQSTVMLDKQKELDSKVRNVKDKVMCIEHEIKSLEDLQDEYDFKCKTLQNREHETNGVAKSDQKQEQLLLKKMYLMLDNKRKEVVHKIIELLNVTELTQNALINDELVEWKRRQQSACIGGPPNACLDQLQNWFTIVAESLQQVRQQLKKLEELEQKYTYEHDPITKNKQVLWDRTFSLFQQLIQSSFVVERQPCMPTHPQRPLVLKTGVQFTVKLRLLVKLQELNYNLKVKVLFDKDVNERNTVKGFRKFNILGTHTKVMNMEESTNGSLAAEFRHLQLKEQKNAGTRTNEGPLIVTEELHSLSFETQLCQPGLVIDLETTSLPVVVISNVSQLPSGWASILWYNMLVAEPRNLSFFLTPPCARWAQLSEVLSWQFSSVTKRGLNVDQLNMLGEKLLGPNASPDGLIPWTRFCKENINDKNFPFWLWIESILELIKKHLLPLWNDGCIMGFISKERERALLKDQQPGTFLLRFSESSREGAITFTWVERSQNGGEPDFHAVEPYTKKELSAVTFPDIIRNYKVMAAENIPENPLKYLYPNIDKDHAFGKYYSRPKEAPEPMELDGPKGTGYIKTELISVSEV

At least one result comes from cells or an extract, where the contact may be indirect. For some assays here: Negatives hold for the conditions tested.

For “GATCGAGATGTATTTCCCAGAAAAG (double strand) [GAS element, human FcgammaRI receptor gene]”, the binding result in series [1] was “binds”; in series [2], “binds”; in series [3] it was “no binding”; in series [4] it was “binds”; in series [5] it was “binds”.

The values are drawn from US20040058318.
